# Results are given in words; binding and its absence hold for the method and conditions named. Some entries that bind do so weakly or less than the wild type. For some assays here: Where a sequence is shown, tags or fusion partners need not be part of it.
# T1: SlMADS1 (tomato (Solanum lycopersicum)), Q7Y040
# T1 chain: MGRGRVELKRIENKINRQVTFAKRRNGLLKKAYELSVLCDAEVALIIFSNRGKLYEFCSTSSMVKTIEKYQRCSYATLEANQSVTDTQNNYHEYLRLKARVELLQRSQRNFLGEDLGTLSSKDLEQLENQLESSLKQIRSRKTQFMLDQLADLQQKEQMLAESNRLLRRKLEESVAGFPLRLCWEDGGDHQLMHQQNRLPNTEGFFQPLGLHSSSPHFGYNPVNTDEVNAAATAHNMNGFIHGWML
# What was measured:
# [1] = biological target: SlMBP21 (tomato (Solanum lycopersicum)) (UniProt K4DEK0); experiment: two-hybrid; … GAL4 Two-Hybrid System III; baits in pGBKT7 in yeast Y2Hgold, preys in pGADT7 in yeast Y187; growth on QDO (SD lacking Trp, Leu, His, adenine) and blue colour on QDO/X (with X-alpha-Gal)
# [2] = biological target: T1, SlMADS1 (tomato (Solanum …)); experiment: as above; conditions: remark: other sources report otherwise
binding [1],binding [2],Molecule
binds,–,SlMBP21 (from UniProt K4DEK0 1-250)
–,no binding,"SlMBP21, K4DEK0 1-250 (protein) MGRGRVELKRIENKINRQVTFAKRRNGLLKKAYELSILCDAEVALIIFSSRGKLYEFSSASSMMTTLEKYQQCSYASLDPMLPVSDTQMNYNEYVRLKARVELLQRSQRHILGEDLGTLNSKELEQLEHQLDASLKKVRSKKTQSMLDQLADLQEKEQMLEEANKQLKNKLEESAARIPLGLSWGNNGGQTMEYNRLPPQTTAQPFFQPLRLNSSSPQFGYNPNMGANDHEVNAATTAHNINGFIPGWML"

# From article PMC10931843
